Counter-ions that a name gives are not always drawn. Like-named read-outs stand apart in the source and are kept apart here. Screen size: about 3,300 compounds; about 60 (2%) showed an effect of 50% or more. The list shows a part of the results. Numbered stars: 1 amine (or outer) side, 2 acyl side, 3 side chain; on linkers, the order of the positions; unused ones are H or OH. Bridge positions count the residues as written; N and C are the ends. Square brackets hold non-standard residues; d marks the D form. Peptide text beside a SMILES is read from it. X2 = CC(C)CCCCCCCCC[C@H](CC(=O)[*:1])O[*:2]
Test system: HCoV-OC43
Set-up: species or system RD; HTS, protection from HCoV-OC43 induced cell death, luminescent cell viability (CellCounting-Lite 2.0), inhibition rate
Conditions: 24 h post infection, 1 h compound pre-incubation, 10 µM, inhibitor

Compound	OC43 Inhibition rate [%]	OC43 Inhibition rate (OC43 Inhibition rate, 24 h) [%]
O=c1ccc2ccccc2o1 [Coumarin]	6.5	–
CC1=C(C/C=C(\C)CCCC(C)CCCC(C)CCCC(C)C)C(=O)c2ccccc2C1=O (centres unmarked) [Vitamin K]	-0.3	–
NC(=O)c1ccc[n+]([O-])c1 [Nicotinamide N-oxide]	-3.9	–
O=C(O)C[C@@H](O)C(=O)O [D-(+)-Malic acid]	0.4	–
COc1ccc(-c2coc3cc(O)ccc3c2=O)cc1O [Calycosin]	-0.6	–
O=c1[nH]cnc2c1ncn2[C@@H]1O[C@H](CO)[C@@H](O)[C@H]1O [Inosine]	0.1	–
Cc1cccc(O)c1O [3-Methylcatechol]	-0.2	–
CCCCC(CC)CCC(=O)O (centres unmarked) [4-Ethyloctanoic acid]	-0.1	–
CC(/C=C/C=C(\C)C(=O)O)=C\C=C\C=C(C)\C=C\C=C(/C)C(=O)O [Transcrocetinate disodium]	–	2.1
Oc1cc(O)c2c(c1)O[C@@H](c1cc(O)c(O)c(O)c1)[C@H](O)C2 [(-)-Gallocatechin]	-0.6	–
OCc1cn[nH]c1 [4-Hydroxymethylpyrazole]	0.4	–
CC(C)=CCc1c(O)cc(O)c2c(=O)c(-c3ccc(O)cc3)coc12 [Lupiwighteone]	63.3	–
C[N+](C)(C)[C@@H](Cc1c[nH]c(=S)[nH]1)C(=O)[O-] [Ergothioneine]	1.1	–
C=C(C)[C@@H](CC=C(C)C)C[C@@]12C[C@@H](CC=C(C)C)C(C)(C)[C@@](CC=C(C)C)(C(=O)C(C(=O)c3ccc(O)c(O)c3)=C1O)C2=O [Garcinol]	-2.4	–
COc1ccc(C[C@@H]2c3cc(Oc4cc(C[C@@H]5c6cc(OC)c(OC)cc6CCN5C)ccc4O)c(OC)cc3CCN2C)cc1 [Neferine]	17.4	–
Nc1ccn([C@@H]2O[C@H](CO)[C@@H](O)[C@@H]2O)c(=O)n1 [Cytarabine]	-1	–
COc1c2ccoc2c(OC[C@@H](O)C(C)(C)O)c2oc(=O)ccc12 [Byakangelicin]	4.1	–
CC1(C)[C@H]2CC[C@]1(C)C(=O)C2 [Camphor]	7.2	–
COC(=O)[C@@]1(C)CC[C@]2(C(=O)O)CC[C@]3(C)C(=CC[C@@H]4[C@@]5(C)C[C@H](O)[C@H](O)[C@@](C)(CO)[C@@H]5CC[C@]43C)[C@@H]2C1 [Phytolaccagenin]	2.8	–
O=C(CCCCCCCCc1ccc(O)cc1)c1c(O)cccc1O [Malabaricone B]	54	–
OC[C@H]1O[C@H](Oc2ccc(O)cc2)[C@H](O)[C@@H](O)[C@@H]1O [α-Arbutin]	-1.8	–

Compound	OC43 Inhibition rate [%]	OC43 Inhibition rate (OC43 Inhibition rate, 24 h) [%]
O=Cc1ccc(O)cc1 [p-Hydroxybenzaldehyde]	2.7	–
N[C@@H](Cc1ccc(O)c(I)c1)C(=O)O [H-Tyr(3-I)-OH]	5.6	–
O=C(O)[C@H]1O[C@@H](Oc2cc3oc(-c4ccccc4)cc(=O)c3c(O)c2O)[C@H](O)[C@@H](O)[C@@H]1O [Baicalin]	1.8	–
CC(C)CCCCCCCCC[C@@H]1CC(=O)N[C@@H](CCC(=O)O)C(=O)N[C@@H](CC(C)C)C(=O)N[C@H](CC(C)C)C(=O)N[C@@H](C(C)C)C(=O)N[C@@H](CC(=O)O)C(=O)N[C@H](CC(C)C)C(=O)N[C@@H](CC(C)C)C(=O)O1 [Surfactin] (EL[dL]VD[dL]L; linker N-C via X2)	0.1	–
C[C@H](CCC(=O)NCCS(=O)(=O)O)[C@H]1CC[C@H]2[C@@H]3CC[C@@H]4C[C@H](O)CC[C@]4(C)[C@H]3CC[C@]12C [Taurolithocholic acid (sodium salt)]	-0.7	–
Cc1cc(=O)oc2c(O)c(O)ccc12 [4-Methyldaphnetin]	2.8	–
C/C=C/C=C/C(=O)O [Potassium sorbate]	–	1.3
COc1ccc(CCNC(=O)/C=C/c2ccc(O)c(O)c2)cc1 [N-Caffeoyl O-methyltyramine]	4	–
COc1cc(C(=O)O)cc(OC)c1OC [3,4,5-Trimethoxybenzoic acid]	-2.1	–
CC(C)CCC[C@@H](C)[C@H]1CC[C@H]2[C@@H]3CC[C@H]4C[C@@H](O)CC[C@]4(C)[C@H]3CC[C@]12C [5α-Cholestan-3β-ol]	-0.2	–
CC(=O)c1c(O)cc(O)cc1O [Phloracetophenone]	-1	–
CC1=C(CCC(=O)O)c2cc3nc(cc4[nH]c(cc5[nH]c(cc1n2)c(C)c5CCC(=O)O)c(CCC(=O)O)c4C)C(CCC(=O)O)=C3C [Coproporphyrin III]	24.8	–
CC1(C)[C@@H](O)CC[C@]2(C)[C@H]3C(=O)C=C4[C@H]5C[C@@](C)(C(=O)O)CC[C@]5(C)CC[C@@]4(C)[C@]3(C)CC[C@@H]12 [18α-Glycyrrhetinic acid]	2.6	–
O=C(O)[C@@H](O)CO [L-Glyceric acid (sodium)]	0.3	–
CCC(C)CC(=O)O (centres unmarked) [3-Methylvaleric Acid]	-0.4	–
CC(=O)O[C@@H](CC=C(C)C)C1=CC(=O)c2c(O)ccc(O)c2C1=O [Acetylalkannin]	4.1	–
CC(/C=C/C(=O)NO)=C\[C@@H](C)C(=O)c1ccc(N(C)C)cc1 [Trichostatin A]	-3.1	–
O=c1ccc2ccc(O[C@@H]3O[C@H](CO)[C@@H](O)[C@H](O)[C@H]3O)c(O)c2o1 [Daphnin]	1.4	–
O=C(O)[C@H]1O[C@@H](Oc2cc(O)c3c(=O)cc(-c4ccc(O)c(O)c4)oc3c2)[C@H](O)[C@@H](O)[C@@H]1O [Luteolin 7-O-glucuronide]	0.8	–
O=C(O)CNC(=O)c1ccco1 [2-Furoylglycine]	1.9	–
CC(=O)[C@H]1CC[C@H]2[C@@H]3CC=C4C[C@@H](O)CC[C@]4(C)[C@H]3CC[C@]12C [Pregnenolone]	1.3	–

Compound	OC43 Inhibition rate [%]	OC43 Inhibition rate (OC43 Inhibition rate, 24 h) [%]
COc1ccc(-c2cc(=O)c3c(OC)cc(OC)c(OC)c3o2)cc1OC [Isosinensetin]	0.6	–
C[C@@H](O)[C@H](N)C(=O)O (racemic) [DL-Threonine]	-2.5	–
Oc1cc2c(cc1O)[C@@H]1c3ccc(O)c(O)c3OC[C@]1(O)C2 [Hematoxylin]	11.1	–
COc1cc(O)c2c(=O)cc(-c3ccc(O)cc3)oc2c1 [Genkwanin]	0.4	–
O=c1ccn([C@@H]2O[C@H](COP(=O)(O)OP(=O)(O)OP(=O)(O)O)[C@@H](O)[C@H]2O)c(=O)[nH]1 [Uridine triphosphate (trisodium salt)]	-1.3	–
Cc1cccc2c3c(ccc12)C(=O)C(C(C)CO)=C(O)C3=O (centres unmarked) [Danshenxinkun A]	-1.6	–
COc1cc2c(cc1OC)[C@@H](Cc1ccc(O)c(Oc3cc4c(cc3OC)CCN(C)[C@@H]4Cc3ccc(O)cc3)c1)N(C)CC2 [Liensinine]	–	54.6
C[C@@H]1O[C@@H](O[C@H]2[C@H](OC(=O)[C@]34CCC(C)(C)C[C@H]3C3=CC[C@@H]5[C@@]6(C)C[C@H](O)[C@H](O[C@@H]7O[C@H](CO)[C@@H](O)[C@H](O)[C@H]7O)C(CO)(CO)[C@@H]6CC[C@@]5(C)[C@]3(C)C[C@H]4O)OC[C@H](O)[C@@H]2O)[C@H](O)[C@H](O)[C@H]1O[C@@H]1OC[C@@H](O)[C@H](O)[C@H]1O [Deapioplatycodin D]	0	–
O=C(O)CP(=O)(O)O [Phosphonoacetic acid]	4.8	–
O=C(O[C@H](Cc1ccc(O)c(O)c1)C(=O)O)C1=Cc2cc(O)c(O)cc2[C@H](c2ccc(O)c(O)c2)[C@H]1C(=O)OC(Cc1ccc(O)c(O)c1)C(=O)O (stereo in doubt) [Rabdosiin]	-1	–
COc1cc(-c2cc(=O)c3c(O)cc(O)cc3o2)ccc1O [Chrysoeriol]	0.5	–
O=c1c2c(O)cc(O)cc2oc2c(O)ccc(O[C@@H]3O[C@H](CO)[C@@H](O)[C@H](O)[C@H]3O)c12 [Norswertianolin]	-0.5	–
Nc1ccccc1C(=O)C[C@@H](N)C(=O)O [D-Kynurenine]	-6.1	–
CCC(C)(O)C(=O)O (centres unmarked) [2-Hydroxy-2-methylbutanoic acid]	-0.4	–
COc1cc2c(cc1OC)C(Cc1ccc(O)cc1)N(C)CC2 (centres unmarked) [Armepavine]	-11.6	–
O=C(O)[C@H]1O[C@@H](Oc2cc(O)c3c(=O)cc(-c4ccccc4)oc3c2)[C@H](O)[C@@H](O)[C@@H]1O [Chrysin-7-O-glucuronide]	0	–
CCCC[C@H](N)C(=O)O [L-Norleucine]	-2.6	–
CCCCCCCCCCCCC/C=C/[C@@H](O)[C@@H](N)CO [D-erythro-Sphingosine]	4.3	–
OC[C@H]1O[C@H](OC[C@H]2O[C@H](OC[C@H]3O[C@H](OC[C@H]4OC(O)[C@H](O)[C@@H](O)[C@@H]4O)[C@H](O)[C@@H](O)[C@@H]3O)[C@H](O)[C@@H](O)[C@@H]2O)[C@H](O)[C@@H](O)[C@@H]1O (some centres unmarked) [Isomaltotetraose]	-3.6	–
CC(=O)OC(C)C(C)C(=O)OC[C@@]12[C@H]3C[C@]4(C)C(=CC[C@@H]5[C@@]6(C)CC[C@H](O[C@@H]7O[C@H](C(=O)O)[C@@H](O[C@@H]8O[C@H](CO)[C@@H](O)[C@H](O)[C@H]8O)[C@H](O)[C@H]7O[C@@H]7OC[C@@H](O)[C@H](O)[C@H]7O)[C@@](C)(CO)[C@@H]6CC[C@]54C)[C@@H]1CC(C)(C)[C@H](O3)[C@@H]2O (some centres unmarked) [Sodium aescinate]	6.6	–

In another format: 5 of the compounds above

| Compound | OC43 Inhibition rate [%] | OC43 Inhibition rate (OC43 Inhibition rate, 24 h) [%] |
| --- | --- | --- |
| CC1=C(C/C=C(\C)CCCC(C)CCCC(C)CCCC(C)C)C(=O)c2ccccc2C1=O (centres unmarked) [Vitamin K] | -0.3 | – |
| NC(=O)c1ccc[n+]([O-])c1 [Nicotinamide N-oxide] | -3.9 | – |
| Oc1cc(O)c2c(c1)O[C@@H](c1cc(O)c(O)c(O)c1)[C@H](O)C2 [(-)-Gallocatechin] | -0.6 | – |
| N[C@@H](Cc1ccc(O)c(I)c1)C(=O)O [H-Tyr(3-I)-OH] | 5.6 | – |
| COc1cc2c(cc1OC)C(Cc1ccc(O)cc1)N(C)CC2 (centres unmarked) [Armepavine] | -11.6 | – |

— article PMC12431657, “Discovery and mechanistic insights of dibenzoylmethane as a broad spectrum inhibitor of coronavirus” (PLOS Pathogens, 2025)
